Test results as given in patent publication US20190105389A1, “ADJUVANT SYSTEM FOR ORAL VACCINE ADMINISTRATION” (Vaxform LLC, priority 2012, published 2019).
Some results were stated once for a whole list of compounds, not compound by compound.

Assay: Stability of CTL agonist linkage to aluminum particle on exposure to phosphate (FIG. 3A, 3B)
Assay type: physicochemical
Conditions: exposed to 50 mM phosphate pH 7.4 for 30 minutes in the presence of antigen
Text: It is important to maintain the stability of the CTL agonist linkage to the aluminum particle upon exposure to body fluid following administration. Components of interstitial fluid such as phosphate, citrate, and protein have the potential to remove the linkage of the CTL agonist with aluminum-containing adjuvants. The resulting soluble CTL agonist may adversely impact the immune response. FIG. 3A illustrates that M1P as well as mannan maintain approximately 100% linkage with aluminum oxyhydroxide when exposed to 50 mM phosphate pH 7.4 for 30 minutes in the absence of antigen.

Substance: mannan
- Linkage with aluminum oxyhydroxide maintained: less than 100%
